{
  "source": "paper PMC10779874",
  "binders": {"B1": {"name": "integrin beta 3 (protein, UniProt O54890 26-787)", "chain": "ESNICTTRGVNSCQQCLAVSPVCAWCSDETLSQGSPRCNLKENLLKDNCAPESIEFPVSEAQILEARPLSSKGSGSSAQITQVSPQRIALRLRPDDSKIFSLQVRQVEDYPVDIYYLMDLSFSMKDDLSSIQTLGTKLASQMRKLTSNLRIGFGAFVDKPVSPYMYISPPQAIKNPCYNMKNACLPMFGYKHVLTLTDQVSRFNEEVKKQSVSRNRDAPEGGFDAIMQATVCDEKIGWRNDASHLLVFTTDAKTHIALDGRLAGIVLPNDGHCHIGTDNHYSASTTMDYPSLGLMTEKLSQKNINLIFAVTENVVSLYQNYSELIPGTTVGVLSDDSSNVLQLIVDAYGKIRSKVELEVRDLPEELSLSFNATCLNNEVIPGLKSCVGLKIGDTVSFSIEAKVRGCPQEKEQSFTIKPVGFKDSLTVQVTFDCDCACQAFAQPSSPRCNNGNGTFECGVCRCDQGWLGSMCECSEEDYRPSQQEECSPKEGQPICSQRGECLCGQCVCHSSDFGKITGKYCECDDFSCVRYKGEMCSGHGQCNCGDCVCDSDWTGYYCNCTTRTDTCMSTNGLLCSGRGNCECGSCVCVQPGSYGDTCEKCPTCPDACSFKKECVECKKFNRGTLHEENTCSRYCRDDIEQVKELTDTGKNAVNCTYKNEDDCVVRFQYYEDTSGRAVLYVVEEPECPKGPDILVVLLSVMGAILLIGLATLLIWKLLITIHDRKEFAKFEEERARAKWDTANNPLYKEATSTFTNITYRGT"}, "B2": {"name": "integrin beta 5 (protein, UniProt O70309 24-798)", "chain": "GLNICTSGSATSCEECLLIHPKCAWCSKEYFGNPRSITSRCDLKANLIRNGCEGEIESPASSTHVLRNLPLSSKGSSATGSDVIQMTPQEIAVSLRPGEQTTFQLQVRQVEDYPVDLYYLMDLSLSMKDDLENIRSLGTKLAEEMRKLTSNFRLGFGSFVDKDISPFSYTAPRYQTNPCIGYKLFPNCVPSFGFRHLLPLTDRVDSFNEEVRKQRVSRNRDAPEGGFDAVLQAAVCKEKIGWRKDALHLLVFTTDDVPHIALDGKLGGLVQPHDGQCHLNEANEYTASNQMDYPSLALLGEKLAENNINLIFAVTKNHYMLYKNFTALIPGTTVEILHGDSKNIIQLIINAYSSIRAKVELSVWDQPEDLNLFFTATCQDGISYPGQRKCEGLKIGDTASFEVSVEARSCPGRQAAQSFTLRPVGFRDSLQVEVAYNCTCGCSTGLEPNSARCSGNGTYTCGLCECDPGYLGTRCECQEGENQSGYQNLCREAEGKPLCSGRGECSCNQCSCFESEFGRIYGPFCECDSFSCARNKGVLCSGHGECHCGECKCHAGYIGDNCNCSTDVSTCKAKDGQICSDRGRCVCGQCQCTEPGAFGETCEKCPTCPDACSSKRDCVECLLLHQGKPDNQTCHHQCKDEVITWVDTIVKDDQEAVLCFYKTAKDCVMMFSYTELPNGRSNLTVLREPECGSAPNAMTILLAVVGSILLIGMALLAIWKLLVTIHDRREFAKFQSERSRARYEMASNPLYRKPISTHTVDFAFNKFNKSYNGSV"}, "B3": {"name": "integrin alpha 2b (protein, UniProt Q9QUM0 32-1033)", "chain": "LNLDSEKFSVYAGPNGSHFGFSVDFHKDKHGSVSIVVGAPRALNASQEETGAVFLCPWKANGGKCNPLLFDLRDETRNLGFQIFQTFKTGQGLGASVVSWNDVIVACAPWQHWNVLEKRDEAEKTPVGGCFLAQLQSGGRAEYSPCRANTMSSVYAESFRGDKRYCEAGFSLAVTQAGELVLGAPGGYFFLGLLARVPIENIISSYRPGTLLWHVSNQRFTYDNSNPVFFDGYRGYSVAVGEFDGDPSTTEYVSGAPTWSWTLGAVEILDSYYQPLHRLHGEQMASYFGHSVAVTDVNGDGRHDLLVGAPLYMESRADRKLAEVGRVYLFLQPKGPQALSTPTLLLTGTQLYGRFGSAIAPLGDLNRDGYNDIAVAAPYGGPSGQGQVLIFLGQSEGLSPRPSQVLDSPFPTGSGFGFSLRGAVDIDDNGYPDLIVGAYGASKVAVYRAQPVVMATVQLMVQDSLNPTLKNCVLDQTKTPVSCFNIQMCVGATGHNIPQKLHLKAELQLDLQKPRQGRRVLLLASQQASLTLSLDLGGRDKPICHTTGAFLRDEADFRDKLSPIVLSLNVSLPPEETGGAPAVVLHGETHVQEQTRIILDCGEDDLCVPQLRLTATAGDSPLLIGADNVLELKIEAANDGEGAYEAELAVHLPPGAHYMRALSNIEGFERLVCTQKKENESRVALCELGNPMKKDTRIGITMLVSVENLEEAGESVSFQLQVRSKNSQNPNSKVVMLPVAIQAEATVELRGNSFPASLVVAAEEGDREQEDLDRWVSRLEHTYELHNIGPGTVNGLRLLIHIPGQSQPSDLLYILDVQPQGGLLCSTQPSPKVDWKLSTPSPSSIRPVHHQRERRQAFLQGPKPGQQDPVLVSCDGSASCTVVECELREMVRGQRAMVTVQVMLGLSSLRQRPQEQFVLQSHAWFNVSSLPYSVPVVSLPSGQARVQTQLLRALEERAIPVWWVLVGVLGGLLLLTLLVLAMWKAGFFKRNRPPLEEDEEEE"}},
  "target": "ATP6V1H, the H subunit of V-type proton ATPase",
  "test": "co-IP; magnetic beads conjugated with ATP6V1H antibodies (commercial kit, Beaver) incubated with the RIPA lysate supernatant of RAW264.7 cell derivatives (native, empty vector, overexpressing ATP6V1H, mutated ATP6V1H); eluate blotted for integrin subunits",
  "note": "No constants are given. Whether binding was seen depends on the method and setting. Binding seen in cells or lysates may run through a third protein. Binding calls can cover weak binding; strength is not graded here.",
  "data": [
    {"binder": "B1", "values": [
      {"measurement": "binding", "value": "binds"}
    ]},
    {"binder": "B2", "values": [
      {"measurement": "binding", "value": "binds"}
    ]},
    {"binder": "B3", "values": [
      {"measurement": "binding", "value": "binds"}
    ]}
  ]
}
